In article PMC8308784, “Novel Purine Chemotypes with Activity against Plasmodium falciparum and Trypanosoma cruzi” (Pharmaceuticals, 2021):
Values joined by “and” are separate entries in the source; they are usually repeats but may differ in a detail not shown here. Equal values may be shown once.

Test system: Vero cells
Experiment: Vero cell toxicity assay (alamarBlue)
Type: cell-based, green monkey
Conditions: selectivity index; for SI a (Vero cells, anti-T. cruzi assay): Vero TC50 versus anti-T. cruzi assay IC50; for SI b (Vero cells, antiamastigote assay): Vero TC50 versus antiamastigote IC50; for SI c (Vero cells, anti-P. falciparum assay): Vero TC50 versus P. falciparum IC50
Experimental: Human erythrocytes were purified from B+ Rh+ blood samples and maintained at 4 °C in incomplete RPMI medium. Vero (green monkey kidney epithelial cells), LLC-MK2 (Rhesus monkey kidney epithelial cells), and HepG2 (human liver epithelial cells) cultures were cultivated in DMEM supplemented with 1% penicillin–streptomycin (PS) and 10% heat-inactivated fetal bovine serum (FBS) at 37 °C, 5% CO2, and >95% humidity, as described in [31]. HepG2 cells were also supplemented with 10% non-essential amino acids. Vero and MK2 cells were passaged twice per week at 1:12 ratios, while HepG2 cells were passaged at a 1:8 ratio.
Vero and HepG2 cells were detached, centrifuged, and resuspended in DMEM without phenol red. Cell viability was checked upon cell counting with trypan blue staining. Then, Vero and HepG2 cells were diluted at a concentration of 5 × 10^5 and 3.2 × 10^5 cells per mL, respectively, before adding 100 µL per well to the 96-well plate. Each run contained its own negative (untreated cells) and positive (medium alone) controls. Plates were incubated at 37 °C for 4 days in the case of Vero, or 2 in the case of HepG2 cells. Assay readout was made by adding 50 µL per well of a PBS solution containing 10% alamarBlue reagent (Thermo Fisher Scientific); then, plates were incubated for another 6 h at 37 °C, before recording the fluorescence intensity with a Tecan Infinite M Nano+ reader (excitation: 530 nm, emission: 590 nm).
Absorbance values derived from the anti-T. cruzi assays and fluorescence values from the anti-P. falciparum and cell toxicity assays were normalized to the controls. In the primary screening at three fixed doses, the compounds’ inhibitory activity was expressed as a percentage of the negative control (100% parasitic growth). In dose–response assays, the compounds’ IC50 and TC50 values were determined with GraphPad Prism 7 software (version 7.00, 2016), using a non-linear regression analysis model defined by the following equation: Y=100 ÷(1+10^((LogIC50−X)×HillSlope))

Compound	SI a (Vero cells, anti-T. cruzi assay)	SI b (Vero cells, antiamastigote assay)	SI c (Vero cells, anti-P. falciparum assay)
CN1CCN(n2cnc3c(OCc4ccccc4)ncnc32)CC1 [Compound 29]	> 205.8 and >205.76	>6.36	–
COc1cccc(-n2cc(COc3ncnc4c3ncn4C(C)(C)C)nn2)c1 [Compound 88]	>14.15	>5.08	–
c1ccc(-c2nc3c(OCc4cn(Cc5cscn5)nn4)ncnc3n2N2CCCCC2)cc1 [Compound 76]	–	–	>27.37
COc1cccc(-n2cc(COc3ncnc4c3ncn4N3CCN(C)CC3)nn2)c1 [Compound 94]	>63.16	>0.79	–
O=C(Cn1ccnc1[N+](=O)[O-])NCc1ccccc1 [BNZ, benznidazole, reference compound]	121.80	115.11	–
C#CCOc1ncnc2c1ncn2N1CCN(C)CC1 [Compound 93]	> 1408.45	>9.17	–
COC(=O)c1ccccc1-n1cc(COc2ncnc3c2nc(-c2ccccc2)n3N(C)C)nn1 [Compound 34]	> 1456.31	–	–
CC(C)(C)n1c(-c2ccccc2)nc2c(OCc3ccccc3)ncnc21 [Compound 6D]	>26.98	–	< 10 and >7.94
COc1ccccc1-n1cc(COc2ncnc3c2nc(-c2ccccc2)n3N(C)C)nn1 [Compound 33]	–	–	>15.63
c1ccc(CCn2c(-c3ccccc3)nc3c(OCc4ccccc4)ncnc32)cc1 [Compound 6g]	>37.78	>7.63	< 10 and >7.86
